Laboratory results taken from publication PMC3763552.
Results are given in words; binding and its absence hold for the method and conditions named. In cells and extracts the contact can be indirect.

By UniProt entry, the sequences of proteins in these tests, tags left out.
UniProt Q04637: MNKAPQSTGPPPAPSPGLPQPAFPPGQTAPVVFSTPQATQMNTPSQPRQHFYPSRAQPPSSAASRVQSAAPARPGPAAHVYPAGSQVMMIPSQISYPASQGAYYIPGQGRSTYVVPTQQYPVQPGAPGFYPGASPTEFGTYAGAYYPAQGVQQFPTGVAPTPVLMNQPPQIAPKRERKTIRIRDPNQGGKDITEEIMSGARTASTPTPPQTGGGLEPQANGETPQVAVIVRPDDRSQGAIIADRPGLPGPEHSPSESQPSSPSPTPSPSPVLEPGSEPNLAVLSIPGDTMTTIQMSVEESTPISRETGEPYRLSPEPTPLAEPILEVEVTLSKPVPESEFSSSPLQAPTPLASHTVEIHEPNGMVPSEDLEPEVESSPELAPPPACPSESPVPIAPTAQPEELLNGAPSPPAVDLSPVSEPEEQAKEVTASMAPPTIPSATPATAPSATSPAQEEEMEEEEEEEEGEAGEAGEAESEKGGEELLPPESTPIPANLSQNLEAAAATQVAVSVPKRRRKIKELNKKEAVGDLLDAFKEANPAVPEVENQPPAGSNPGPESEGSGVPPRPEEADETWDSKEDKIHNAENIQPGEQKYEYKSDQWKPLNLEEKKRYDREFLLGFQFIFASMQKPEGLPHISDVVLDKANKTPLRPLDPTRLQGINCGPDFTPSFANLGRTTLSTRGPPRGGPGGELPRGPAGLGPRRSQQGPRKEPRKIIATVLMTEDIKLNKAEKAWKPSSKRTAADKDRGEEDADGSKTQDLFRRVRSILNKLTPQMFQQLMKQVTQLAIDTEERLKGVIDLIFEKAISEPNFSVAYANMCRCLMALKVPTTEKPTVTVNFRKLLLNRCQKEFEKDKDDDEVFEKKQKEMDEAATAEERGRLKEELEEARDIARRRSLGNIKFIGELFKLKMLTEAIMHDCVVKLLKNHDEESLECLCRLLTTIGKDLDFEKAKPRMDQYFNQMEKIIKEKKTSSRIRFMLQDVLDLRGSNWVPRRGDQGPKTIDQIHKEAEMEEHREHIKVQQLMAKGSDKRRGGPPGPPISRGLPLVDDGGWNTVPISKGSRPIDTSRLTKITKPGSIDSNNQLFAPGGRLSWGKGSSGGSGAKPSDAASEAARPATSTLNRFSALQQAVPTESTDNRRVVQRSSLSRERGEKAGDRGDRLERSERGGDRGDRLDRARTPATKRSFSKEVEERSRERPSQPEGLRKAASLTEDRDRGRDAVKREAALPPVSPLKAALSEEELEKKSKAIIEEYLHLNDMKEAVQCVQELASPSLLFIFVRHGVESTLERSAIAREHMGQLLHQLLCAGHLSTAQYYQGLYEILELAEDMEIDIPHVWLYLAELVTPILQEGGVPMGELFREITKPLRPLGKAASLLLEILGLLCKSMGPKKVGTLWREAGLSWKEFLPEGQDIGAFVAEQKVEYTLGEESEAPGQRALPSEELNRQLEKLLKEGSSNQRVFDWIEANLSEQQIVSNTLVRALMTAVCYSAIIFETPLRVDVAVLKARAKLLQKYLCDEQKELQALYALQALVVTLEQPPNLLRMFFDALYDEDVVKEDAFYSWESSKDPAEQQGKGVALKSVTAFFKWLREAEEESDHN
UniProt Q13541: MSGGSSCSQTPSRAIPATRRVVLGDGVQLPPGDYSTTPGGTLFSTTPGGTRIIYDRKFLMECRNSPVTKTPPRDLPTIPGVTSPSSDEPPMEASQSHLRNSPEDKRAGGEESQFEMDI

Biological target: endogenous eIF4GI (human (endogenous in HeLa S3)) (UniProt Q04637)

4E-BP1 (from UniProt Q13541 1-118)
binding: no binding
